Data taken from US20180230398A1, “PERFUME SYSTEMS” (The Procter & Gamble Company, priority 2014, published 2018).

Assay: Character description (odour character) of the PRMs of Table 1
Details: odour character in words

Structure (SMILES)	Character description
CC1=C(C)CC2(CC1)COC(C)(C)OC2 [Molecule 121, 3,3,8,9-tetramethyl-2,4-dioxaspiro[5.5] undec-8-ene]	green
CC(=O)C(C)(C)CC=C(C)C [Molecule 140, 3,3,6-trimethylhept-5-en-2-one]	citrus, fresh, grapefruit
